{"source": "PubChem BioAssay AID262", "about": "(DTP/NCI, 2004)", "test_system": "LX-1 lung xenograft sc, nude mice, tumor weight", "test": "NCI In Vivo Anticancer Drug Screen. Data for tumor model Human Lung LX-1 Xenograft (subcutaneous) in NU/NU Swiss (nude) mice", "settings": "T/C endpoint: optimum tumor weight change, schedule: Q04DX003 (ip), vehicle: saline, higher T/C = larger tumour", "procedure": "The antitumor activity of compounds was measured in mice bearing transplantable tumors. Survival or tumor size were measured and the results are expressed as the measurement made in the treated group (T) divided by the measurement made in the vehicle treated control group (C). The tumor model used in this assay is Human Lung LX-1 Xenograft (subcutaneous) in NU/NU Swiss (nude) mice", "note": "The list does not hold the whole screen: it gathers tests that were run many times, whatever their T/C, doses with no T/C, and many T/C values between a quarter and a half above the control. Other doses and runs of a compound stand elsewhere. T/C gives the treated animals as a percentage of the vehicle group. Schedule codes are those of the source, taken here to give the interval after Q, in days (D) or hours (H), and the number of doses after X. Some entries give survivors of the animals treated and no T/C: the source files T/C as zero there, which appears to mark a toxic dose or a test without result, not a measured value. Counts of survivors are from the toxicity check (mostly the fifth day) where no day follows; animals may have died later.", "data": [{"smiles": "Oc1ccc(O)cc1", "values": [{"measurement": "T/C", "setting": "dose: 100.0 mg/kg/injection, evaluated on day 35", "value": "131 % of control"}, {"measurement": "survivor count", "setting": "dose: 200.0 mg/kg/injection", "value": "0 of 5 on day 37"}]}]}
